In PubChem BioAssay AID2551 (National Center for Advancing Translational Sciences (NCATS), 2010):
Out of some 310,000 compounds screened, about 17,000 (5.5%) were called active. Inconclusive results, whose numbers are uncertain, are shown with a selection of clear calls. The call rests on the fitted dose curve; in most records, active means well fitted inhibition curve with a large enough effect; inconclusive means small, poorly fitted or top-dose-only effect, or effect the other way; inactive means no such curve, though single readings can be large or run the other way. A potency beside an inconclusive call is a rough fit, not a confirmed value.

Sequences of proteins named here, by UniProt entry; tags and fusion partners are left off. A change or cut given only in a name is not applied to a line headed by its entry.
UniProt P51450: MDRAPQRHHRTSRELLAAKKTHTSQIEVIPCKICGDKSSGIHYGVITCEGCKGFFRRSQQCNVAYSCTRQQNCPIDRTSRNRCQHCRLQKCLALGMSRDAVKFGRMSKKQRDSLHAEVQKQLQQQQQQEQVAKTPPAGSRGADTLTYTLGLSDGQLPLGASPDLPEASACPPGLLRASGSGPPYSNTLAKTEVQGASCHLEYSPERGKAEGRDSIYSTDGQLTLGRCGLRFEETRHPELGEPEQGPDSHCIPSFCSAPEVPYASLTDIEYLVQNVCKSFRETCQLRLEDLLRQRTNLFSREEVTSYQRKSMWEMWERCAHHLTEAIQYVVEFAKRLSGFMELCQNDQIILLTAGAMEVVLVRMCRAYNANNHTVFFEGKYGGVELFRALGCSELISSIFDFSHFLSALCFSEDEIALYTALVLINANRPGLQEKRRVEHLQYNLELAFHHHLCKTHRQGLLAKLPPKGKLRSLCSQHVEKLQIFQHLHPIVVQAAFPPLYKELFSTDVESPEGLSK

The compounds below were run against Nuclear receptor ROR-gamma (Mus musculus) (UniProt P51450) (assay: qHTS for inhibitors of ROR gamma transcriptional activity). Conditions: Drosophila S2 Gal4-RORgamma UAS-luciferase reporter, 20 h; activity change, negative = inhibition: at 53.6 µM (top of the series).
Method in brief: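 Drosophila S2 cells stably expressing Gal4-DBD/mouse RORγ fusion under metallothionein promoter plus UAS-luciferase; compound 1 h, then 700 uM CuSO4 induction for 20 h at ambient temperature; inhibition read as reduced luminescence.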
Further: nearly all actives have a fitted effect of over 60% in size.
On the % scale 0 is the no-effect control and ±100 the full control effect; potency means the concentration at half of the fitted maximal effect.

Potency, inactive:
O=C(COC(=O)/C=C/c1ccc(S(=O)(=O)N2CCOCC2)cc1)NCc1ccccc1
O=C(c1cc(COc2ccc(F)cc2Cl)on1)N1CCSCC1
Cc1ccc(NC(=S)N2C3CCCC2CC(NC(=O)C2CC2)C3)cc1C (stereo not given)
CC(C)c1nc2c(c(=O)n(C)c(=O)n2C)n1C
CCOc1ccc(S(=O)(=O)Nc2cc(OC)ccc2OC)cc1

Potency, active:
COc1cc(NC(=S)N2CCN(c3ccccn3)CC2)cc(OC)c1 11.2 µM
CC(C)(C)C(=O)NC(=S)NCCc1ccccc1 8.91 µM
CCOc1ccccc1NC(=S)NCc1ccco1 10 µM
O=C(CCc1ccccc1)NNC(=S)Nc1ccc(F)cc1 3.55 µM
Cc1ccc(-c2csc(N(CCO)CCCn3c(C(F)(F)F)nc4cc(C(F)(F)F)ccc43)n2)cc1 10 µM
COc1cccc(/C=N/NC(=S)NC2CC3CC2C2C=CCC32)c1O (stereo not given) 8.91 µM
FC(F)(F)c1cccc(NC(=S)NC(c2ccccc2)c2ccccc2)c1 7.08 µM
Cc1ccc(F)c(NC(=S)Nc2cccc3ccccc23)c1 11.2 µM
O=c1c2cc(F)ccc2[nH]c(=S)n1CCCN1CCOCC1 11.2 µM
Cc1cccc(NC(=O)c2nc[nH]c2C(=O)Nc2ccccc2[N+](=O)[O-])c1 4.47 µM

A stretch of the results above, for reference:
Potency, active:
CC(C)(C)C(=O)NC(=S)NCCc1ccccc1 8.91 µM
CCOc1ccccc1NC(=S)NCc1ccco1 10 µM
O=C(CCc1ccccc1)NNC(=S)Nc1ccc(F)cc1 3.55 µM
Cc1ccc(-c2csc(N(CCO)CCCn3c(C(F)(F)F)nc4cc(C(F)(F)F)ccc43)n2)cc1 10 µM
COc1cccc(/C=N/NC(=S)NC2CC3CC2C2C=CCC32)c1O (stereo not given) 8.91 µM

Next part.

Potency, inconclusive:
Cc1ccc(-n2c(Cc3cccn3C)nnc2SCC(=O)N2CCc3ccccc32)cc1 35.5 µM [activator, single point]
Cn1c(Cc2cccs2)n[nH]c1=S 35.5 µM [inhibitor, single point]
Cc1nc2ccc(-c3nc4ccccc4o3)cc2[nH]1 14.1 µM [inhibitor, partial curve, poor fit]
c1ccc(Nc2nc(-c3ccncc3)cs2)cc1 35.5 µM [activator, single point]
C[C@@H]1CC=C[C@H]2[C@H]1C(=O)N(Cc1ccccc1)[C@H]2c1ccc(F)c(Br)c1 15.8 µM [inhibitor, single point]
S=c1[nH]ncc2ccccc12 35.5 µM [inhibitor, single point]
CCOc1ccc(-c2nc(CSCC(=O)NCC3CCCO3)c(C)o2)cc1 (stereo not given) 8.91 µM [inhibitor, partial curve, poor fit]
CCC(C)c1ccc(NC(=O)NCc2cccnc2)cc1 (stereo not given) 12.6 µM [activator, partial curve, poor fit]
Cc1ccc(Cn2ccc(NC(=O)c3cc(C(C)C)on3)n2)cc1 22.4 µM [inhibitor, single point]
O=C(N/N=C1/CCSC1)c1cccc([N+](=O)[O-])c1 15.8 µM [inhibitor, single point]
COC(=O)c1cc(=O)n(Cc2ccc3c(c2)OCO3)c(=Nc2ccc(F)cc2)s1 25.1 µM [inhibitor, single point]
Fc1ccc(/C=N/Nc2ncnc3nc[nH]c23)cc1F 12.6 µM [activator, partial curve]
C/C(=N\Nc1nc(C(C)(C)C)cs1)c1ccc(O)cc1 35.5 µM [inhibitor, single point]
COC(=O)c1sc(-c2ccc(Cl)cc2)cc1NC(=O)c1ccccc1C(=O)O 10 µM [activator, partial curve]
CC(C)c1ccccc1NC(=O)COc1ccc2c(=O)c(Oc3ccc4ccccc4c3)coc2c1 3.16 µM [activator, single point]
Fc1ccccc1CN(CCN1CCOCC1)C(=S)Nc1ccccc1Cl 12.6 µM [inhibitor, single point]
Cc1ccc(N2C(=O)CC(SCC(=O)Nc3ccc(S(N)(=O)=O)cc3)C2=O)cc1 (stereo not given) 35.5 µM [inhibitor, single point]
CCOc1ccc(N2C(=O)/C(=C/c3cc(OC)c(OC)c(OC)c3)N(CC(=O)OC)C2=S)cc1 11.2 µM [activator, partial curve]
CSc1ccccc1NC(=S)Nc1ccc(S(N)(=O)=O)cc1 11.2 µM [inhibitor, single point]
Cc1ccc(C(=O)Nc2cccc(C(F)(F)F)c2)cc1Nc1cncnc1 14.1 µM [activator, partial curve]
CCCCC(=O)Nc1nc2ccc3nc(C)sc3c2s1 7.08 µM [activator, partial curve]
O=C(COc1ccc(/C=N/NC(=O)c2ccccc2O)cc1)Nc1ccccc1 35.5 µM [inhibitor, single point]
N#C/C(=C/c1cn(-c2ccccc2)nc1-c1cccc(OCc2ccc(F)cc2)c1)C(=O)NCCCn1ccnc1 4.47 µM [inhibitor, single point]
CCC(=O)c1ccc(N2CCN(C(=O)c3ccc(F)cc3)CC2)c(F)c1 35.5 µM [inhibitor, single point]
O=C(CBr)N1CCc2ccccc2C(c2ccccc2)C1 (stereo not given) 35.5 µM [inhibitor, single point]
Nc1nc(N)c2cc(Sc3ccc4ccccc4c3)ccc2n1 35.5 µM [inhibitor, single point]
O=S1(=O)CCC(S(=O)(=O)N2CCCCCC2)C1 (stereo not given) 0.794 µM [inhibitor, partial curve, poor fit]
COc1ccc2oc(=O)c(C(=O)NCc3ccccn3)cc2c1 12.6 µM [activator, single point]
Cc1cc2ccccn2c1C(C[N+](=O)[O-])c1ccc(N(C)C)cc1 (stereo not given) 35.5 µM [inhibitor, single point]

Activity change, negative = inhibition, inactive:
COc1ccc([C@]23Cc4ccccc4C(O2)C2=C(O3)C(=O)c3ccccc3C2=O)cc1 0.387% [at 10 µM]
